According to patent US20180346592A1:
These are yes or no findings as the source states them, for the method shown. Some binding calls cover weakened binding; strength is not graded here.

The chains behind the UniProt entries cited, without tags or fusion partners. Where a name states a change or a piece, a line headed by the entry shows the natural chain unless it says otherwise.
UniProt P51654: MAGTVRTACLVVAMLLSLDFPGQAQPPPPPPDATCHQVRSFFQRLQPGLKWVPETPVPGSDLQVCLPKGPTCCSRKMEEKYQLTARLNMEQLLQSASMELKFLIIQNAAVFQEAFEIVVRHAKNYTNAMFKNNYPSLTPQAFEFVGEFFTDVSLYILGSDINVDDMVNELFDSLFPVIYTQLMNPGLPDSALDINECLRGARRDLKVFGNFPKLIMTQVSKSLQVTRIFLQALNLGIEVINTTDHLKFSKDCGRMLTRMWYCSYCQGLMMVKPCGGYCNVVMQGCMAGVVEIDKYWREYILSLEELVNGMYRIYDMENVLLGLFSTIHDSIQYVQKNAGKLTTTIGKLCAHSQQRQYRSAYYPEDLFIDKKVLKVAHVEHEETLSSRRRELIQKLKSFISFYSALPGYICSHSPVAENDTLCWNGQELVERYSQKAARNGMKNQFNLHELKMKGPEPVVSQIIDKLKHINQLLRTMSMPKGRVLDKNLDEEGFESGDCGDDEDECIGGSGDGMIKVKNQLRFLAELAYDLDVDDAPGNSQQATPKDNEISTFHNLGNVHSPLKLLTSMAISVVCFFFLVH

target: human GPC3 (GPC3 antigen coated for panning and ELISA) (human) (UniProt P51654); experiment: ELISA, clone culture supernatant on GPC3-coated plate

binding	Binder
binds	clone GX116 (scFv, V domains shown) VH: QVQLVQSGAEVKKPGASVKVSCKASGYTFTSYYMHWVRQAPGQGLEWMGIINPSGGSTSYAQKFQGRVTMTRDTSTSTVYMELSSLRSEDTAVYYCARVMVRGVSTFGYWGQGTLVTVSS VL: QSVLTQPPSVSAAPGQKVSISCSGSSSNIGKNFLSWYQQLPGTAPHLLIYRNNRRPSGIPDRFSGSKSGTSATLTITGLQTGDEGDYYCGAWDSRLSGVVFGGGTKLTVLG
binds	clone GX118 (scFv, V domains shown) VH: QLQLQESGPGLVKPSETLSLTCTVSGGSISSSSYYWGWIRQPPGKGLEWIGSIYYSGSTYYNPSLKSRVTISVDTSKNQFSLKLSSVTAADTAVYYCARLRSFADNYVWGSYASYYFDYWGRGTLVTVSS VL: QSVVTQPPSVSAAPGQRVTISCSGSSSNIGNNFVSWHQQLPGTAPKLLIYDNNKRPSGIPDRFSGSKSGTSATLGITGLQTGDEADYYCGTWDNSLGTGVFGGGTKLTVLG
binds	clone GS017 (scFv, V domains shown) VH: EVQLLESGGGLVQPGGSLRLSCAASGFTFSGYAMSWVRQAPGKGLEWVSGISPGDGSTYYADSVKGRFTISRDNSKNTLYLQMNSLRAEDTAVYYCARVARMCQGWRCSYADGMDVWGQGTLVTVSS VL: QSVLTQPPSASGTPGQRVTISCTGSSSNIGNNSVYWYQQLPGTAPKLLIYSDSHRPSGVPDRFSGSKSGTSASLAISGLRSEDEADYYCGTWDSSLSGYVFGGGTKLTVLG
binds	clone GS015 (scFv, V domains shown) VH: EVQLLESGGGLAQPGGSLRLSCAASGFTFSDYSMSWVRQAPGKGLEWVSAISPDGGSKYYADSVKGRFTISRDNSKNTLYLQMNSLRAEDTAVYYCARFRVIKLRAGWYSANGMDVWGQGTLVTVSS VL: QSVLTQPPSASGTPGQRVTISCSGSSSNIGNNDVSWYQQLPGTAPKLLIYYNSKRPSGVPDRFSGSKSGTSASLAISGLRSEDEADYYCGAWDDSLNGYVFGGGTKLTVLG

More lines, now with the values behind:

Binder	binding
clone GN414 (scFv, V domains shown) VH: QVQLVQSGAEVKKPGASVKVSCKASGYTFSTYGITWVRQAPGQGLEWMGRITPNNGVTDYAQKFQGRVTMTRDTSISTAYMELSSLRSDDSAVYYCAREIGSSSWKLLDPWGQGTMVTVSS VL: QAVLTQPSSVSVSPGQTASITCTGNSNNVGYEGAAWVQQYQGHPPKLLSDRNHNRPSGISERFSASRSGNTASLTITGLQSEDEADYYCSAWDSSLSEWVSGGGTKLTVLG	binds
clone GN328 (scFv, V domains shown) VH: EVQLVESGGGLVQPGGSLRVSCAASGFTFSTAWMDWVRQAPGKGLEWVANINPDGSEKHYVDSVKGRFTVSRDNAKNSVYLHMNNLRAEDTAVYYCSKALDYWGQGTTVTVSS VL: DIQMTQSPSTLSASVGDRVTITCRASQNINTWLAWYQQKPGKAPEVLIYEASSLESGVPPRFSGSGSGTEFTLTISSLQPDDSATYYCQQYNTYSPTFGQGTKLEIKR	binds
clone GS014 (scFv, V domains shown) VH: EVQLLESGGGLVQPGGSLRLSCAASGFTFSNYAMSWVRQAPGKGLEWVSVISPNSGSNTYYADSVKGRFTISRDNSKNTLYLQMNSLRAEDTAVYYCARPRILRRRVDHSYSYAMDVWGQGTLVTVSS VL: QSVLTQPPSASGTPGQRVTISCTGSSSNIGNNYVSWYQQLPGTAPKLLIYSNSHRPSGVPDRFSGSKSGTSASLAISGLRSEDEADYYCGTWDYSLSGYVLGGGTKLTVLG	binds
